Test results taken from PMC10616178.
No constants are given. Whether binding was seen depends on the method and setting. Binding seen in cells or lysates may run through a third protein. Some results given as binding are weak or reduced against the parent protein; the word gives no strength.

Sequences of proteins named here, by UniProt entry; tags and fusion partners are left off.
UniProt Q9CUN6: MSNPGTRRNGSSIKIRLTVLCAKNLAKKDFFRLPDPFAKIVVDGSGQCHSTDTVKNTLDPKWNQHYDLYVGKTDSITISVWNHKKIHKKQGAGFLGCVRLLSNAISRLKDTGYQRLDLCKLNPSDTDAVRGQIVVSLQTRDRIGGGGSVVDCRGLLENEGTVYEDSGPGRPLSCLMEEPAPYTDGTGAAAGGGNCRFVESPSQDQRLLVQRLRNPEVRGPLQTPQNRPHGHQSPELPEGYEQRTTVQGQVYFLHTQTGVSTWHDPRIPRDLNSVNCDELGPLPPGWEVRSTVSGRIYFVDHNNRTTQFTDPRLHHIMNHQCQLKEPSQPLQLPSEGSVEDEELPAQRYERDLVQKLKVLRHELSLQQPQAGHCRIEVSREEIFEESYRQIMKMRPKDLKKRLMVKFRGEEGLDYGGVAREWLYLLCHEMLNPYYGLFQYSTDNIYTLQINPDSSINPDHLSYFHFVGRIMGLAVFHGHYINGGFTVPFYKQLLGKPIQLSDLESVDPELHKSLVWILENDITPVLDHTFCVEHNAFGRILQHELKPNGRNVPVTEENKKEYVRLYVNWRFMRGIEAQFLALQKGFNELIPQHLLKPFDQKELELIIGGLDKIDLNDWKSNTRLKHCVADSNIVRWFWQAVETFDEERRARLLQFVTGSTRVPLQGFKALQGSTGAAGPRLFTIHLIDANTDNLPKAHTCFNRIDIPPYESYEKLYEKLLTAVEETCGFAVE
UniProt P26039: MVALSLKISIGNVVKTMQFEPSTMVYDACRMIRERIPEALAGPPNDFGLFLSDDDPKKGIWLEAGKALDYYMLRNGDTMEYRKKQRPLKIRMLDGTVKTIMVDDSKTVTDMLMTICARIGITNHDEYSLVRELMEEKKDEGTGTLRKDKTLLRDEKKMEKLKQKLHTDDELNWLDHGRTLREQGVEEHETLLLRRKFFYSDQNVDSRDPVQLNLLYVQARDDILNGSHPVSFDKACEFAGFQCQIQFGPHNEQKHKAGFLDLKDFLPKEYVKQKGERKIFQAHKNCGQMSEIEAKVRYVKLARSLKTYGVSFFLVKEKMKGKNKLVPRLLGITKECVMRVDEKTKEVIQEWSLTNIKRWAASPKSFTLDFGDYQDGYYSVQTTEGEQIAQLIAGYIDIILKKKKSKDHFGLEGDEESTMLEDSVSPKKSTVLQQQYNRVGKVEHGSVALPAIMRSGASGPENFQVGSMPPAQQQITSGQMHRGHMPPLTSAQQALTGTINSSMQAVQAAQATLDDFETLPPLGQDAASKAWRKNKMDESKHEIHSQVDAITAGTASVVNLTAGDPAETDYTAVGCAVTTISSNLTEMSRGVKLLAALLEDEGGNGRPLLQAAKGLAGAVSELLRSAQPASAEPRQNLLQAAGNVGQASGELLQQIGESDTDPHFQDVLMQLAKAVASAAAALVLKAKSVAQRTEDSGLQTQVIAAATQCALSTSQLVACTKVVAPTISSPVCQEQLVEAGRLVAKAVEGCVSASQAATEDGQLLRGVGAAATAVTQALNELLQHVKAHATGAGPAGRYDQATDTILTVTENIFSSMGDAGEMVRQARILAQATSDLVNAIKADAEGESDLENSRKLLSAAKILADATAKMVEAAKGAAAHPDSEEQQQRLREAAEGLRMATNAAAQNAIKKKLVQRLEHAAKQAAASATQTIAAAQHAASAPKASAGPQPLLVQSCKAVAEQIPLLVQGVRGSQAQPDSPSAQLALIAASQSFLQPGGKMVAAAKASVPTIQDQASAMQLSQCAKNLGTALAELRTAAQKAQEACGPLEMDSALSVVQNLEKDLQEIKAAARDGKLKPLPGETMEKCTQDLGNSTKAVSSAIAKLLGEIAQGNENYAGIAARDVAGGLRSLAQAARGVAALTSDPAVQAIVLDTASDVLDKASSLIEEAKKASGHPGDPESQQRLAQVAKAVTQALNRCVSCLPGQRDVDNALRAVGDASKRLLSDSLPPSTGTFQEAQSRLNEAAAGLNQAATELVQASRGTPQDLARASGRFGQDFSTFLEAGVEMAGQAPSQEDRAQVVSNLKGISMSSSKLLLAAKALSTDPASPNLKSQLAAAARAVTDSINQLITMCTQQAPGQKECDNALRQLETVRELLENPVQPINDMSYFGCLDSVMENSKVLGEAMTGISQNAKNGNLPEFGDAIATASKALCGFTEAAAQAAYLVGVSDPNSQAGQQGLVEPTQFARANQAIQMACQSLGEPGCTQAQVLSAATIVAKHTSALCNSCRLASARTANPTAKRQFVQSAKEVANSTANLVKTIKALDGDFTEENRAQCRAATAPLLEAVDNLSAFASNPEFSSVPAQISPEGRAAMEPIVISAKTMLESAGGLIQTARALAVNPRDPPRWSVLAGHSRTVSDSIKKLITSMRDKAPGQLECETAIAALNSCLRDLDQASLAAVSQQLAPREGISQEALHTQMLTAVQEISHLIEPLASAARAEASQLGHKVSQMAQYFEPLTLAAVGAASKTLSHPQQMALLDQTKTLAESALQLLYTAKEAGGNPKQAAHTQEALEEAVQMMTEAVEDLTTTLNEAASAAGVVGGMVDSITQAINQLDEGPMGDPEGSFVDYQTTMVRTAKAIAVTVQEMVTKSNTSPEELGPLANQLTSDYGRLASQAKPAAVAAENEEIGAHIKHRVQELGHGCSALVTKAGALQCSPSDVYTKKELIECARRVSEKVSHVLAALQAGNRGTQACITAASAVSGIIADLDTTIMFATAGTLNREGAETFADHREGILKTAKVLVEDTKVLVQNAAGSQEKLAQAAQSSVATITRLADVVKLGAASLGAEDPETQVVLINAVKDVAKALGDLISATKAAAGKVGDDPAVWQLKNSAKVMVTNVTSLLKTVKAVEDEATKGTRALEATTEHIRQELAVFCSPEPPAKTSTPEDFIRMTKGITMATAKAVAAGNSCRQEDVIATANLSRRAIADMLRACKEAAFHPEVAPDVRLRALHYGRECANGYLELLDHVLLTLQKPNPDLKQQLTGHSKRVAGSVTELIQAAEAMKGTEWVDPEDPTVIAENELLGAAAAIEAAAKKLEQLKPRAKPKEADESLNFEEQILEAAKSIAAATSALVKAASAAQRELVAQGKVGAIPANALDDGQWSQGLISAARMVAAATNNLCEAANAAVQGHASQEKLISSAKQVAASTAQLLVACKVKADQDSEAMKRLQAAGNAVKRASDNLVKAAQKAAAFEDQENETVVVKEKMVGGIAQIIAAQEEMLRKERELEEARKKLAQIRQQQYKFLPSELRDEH
UniProt P42227: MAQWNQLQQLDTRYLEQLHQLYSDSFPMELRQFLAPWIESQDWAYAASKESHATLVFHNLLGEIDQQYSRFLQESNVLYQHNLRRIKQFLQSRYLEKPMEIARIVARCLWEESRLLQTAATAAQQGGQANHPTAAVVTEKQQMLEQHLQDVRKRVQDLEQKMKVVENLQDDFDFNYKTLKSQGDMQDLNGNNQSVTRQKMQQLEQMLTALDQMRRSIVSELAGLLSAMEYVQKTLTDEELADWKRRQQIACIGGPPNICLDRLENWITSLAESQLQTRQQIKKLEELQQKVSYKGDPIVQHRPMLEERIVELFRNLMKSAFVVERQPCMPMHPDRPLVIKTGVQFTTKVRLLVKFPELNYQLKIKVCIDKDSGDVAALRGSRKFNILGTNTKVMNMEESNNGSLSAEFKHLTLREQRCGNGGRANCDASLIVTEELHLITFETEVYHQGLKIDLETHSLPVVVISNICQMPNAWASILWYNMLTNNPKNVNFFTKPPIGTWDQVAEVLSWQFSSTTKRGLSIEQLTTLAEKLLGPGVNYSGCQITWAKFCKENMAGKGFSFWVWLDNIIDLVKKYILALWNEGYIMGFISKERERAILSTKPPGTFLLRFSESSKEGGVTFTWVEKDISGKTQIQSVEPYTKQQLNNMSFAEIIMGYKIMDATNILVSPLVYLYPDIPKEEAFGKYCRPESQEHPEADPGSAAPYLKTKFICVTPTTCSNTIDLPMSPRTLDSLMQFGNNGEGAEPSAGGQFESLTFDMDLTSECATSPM
UniProt P52631: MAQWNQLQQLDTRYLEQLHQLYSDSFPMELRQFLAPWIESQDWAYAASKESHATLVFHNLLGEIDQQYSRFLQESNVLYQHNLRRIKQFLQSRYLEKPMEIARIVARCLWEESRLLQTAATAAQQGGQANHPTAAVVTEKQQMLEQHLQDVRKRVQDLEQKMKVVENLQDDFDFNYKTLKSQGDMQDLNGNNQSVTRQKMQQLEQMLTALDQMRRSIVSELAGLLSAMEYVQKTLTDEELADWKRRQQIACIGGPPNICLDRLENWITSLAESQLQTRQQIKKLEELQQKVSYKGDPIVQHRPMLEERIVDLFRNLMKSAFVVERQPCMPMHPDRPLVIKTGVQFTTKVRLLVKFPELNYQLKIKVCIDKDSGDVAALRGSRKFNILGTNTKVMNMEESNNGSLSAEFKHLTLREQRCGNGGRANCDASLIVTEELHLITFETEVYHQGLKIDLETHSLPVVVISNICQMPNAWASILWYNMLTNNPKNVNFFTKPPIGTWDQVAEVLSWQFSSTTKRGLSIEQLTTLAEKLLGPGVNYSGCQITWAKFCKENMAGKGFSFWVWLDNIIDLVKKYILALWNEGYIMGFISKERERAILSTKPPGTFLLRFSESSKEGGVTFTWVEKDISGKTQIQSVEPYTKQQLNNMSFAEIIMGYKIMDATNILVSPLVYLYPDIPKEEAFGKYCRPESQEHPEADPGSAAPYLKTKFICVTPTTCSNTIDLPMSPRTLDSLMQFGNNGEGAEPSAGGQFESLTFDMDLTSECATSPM

Columns and labels:
[1] = target: smad ubiquitination regulatory factor 1 (Smurf1) (UniProt Q9CUN6); assay: co-IP; HEK293T cells transfected with the indicated plasmids, with or without Talin-1 and Smurf1 overexpression (Fig. 5D, E, H, I); lysed 48 h after transfection in IP buffer (50 mM Tris-HCl pH 8.0, 150 mM NaCl, 0.5% sodium deoxycholate, 1% NP-40), antibodies overnight at 4 °C, western blot
Talin-1 = Talin-1 (UniProt P26039); assay: co-IP; INS1 cells transiently transfected with Talin-1 (Fig. 4P, 5B, C) or with siTln1 or siNC (Fig. 5F, G); lysed in IP buffer (50 mM Tris-HCl pH 8.0, 150 mM NaCl, 0.5% sodium deoxycholate, 1% NP-40), precleared with Protein A/G-agarose, antibodies overnight at 4 °C, western blot

Row | Substance | binding [1] | binding (Talin-1)
1 | signal transducer and activator of transcription 3 (Stat3) (from UniProt P42227 1-770) | binds | –
2 | Talin-1 (from UniProt P26039 1-2541) | binds | –
3 | signal transducer and activator of transcription 3 (Stat3) (from UniProt P52631 1-770) | – | no binding
